This assay addresses vascular endothelial growth factor receptor 2 (VEGFR2) (human) (UniProt P35968). The assay is described as follows: confocal co-localisation and co-immunoprecipitation in HUVECs; also co-immunoprecipitation from transfected HEK-293T cells.

Chains of the proteins cited; added tags and fusions are not shown. Residues count along the entry.
UniProt P35968, residues 20-1356: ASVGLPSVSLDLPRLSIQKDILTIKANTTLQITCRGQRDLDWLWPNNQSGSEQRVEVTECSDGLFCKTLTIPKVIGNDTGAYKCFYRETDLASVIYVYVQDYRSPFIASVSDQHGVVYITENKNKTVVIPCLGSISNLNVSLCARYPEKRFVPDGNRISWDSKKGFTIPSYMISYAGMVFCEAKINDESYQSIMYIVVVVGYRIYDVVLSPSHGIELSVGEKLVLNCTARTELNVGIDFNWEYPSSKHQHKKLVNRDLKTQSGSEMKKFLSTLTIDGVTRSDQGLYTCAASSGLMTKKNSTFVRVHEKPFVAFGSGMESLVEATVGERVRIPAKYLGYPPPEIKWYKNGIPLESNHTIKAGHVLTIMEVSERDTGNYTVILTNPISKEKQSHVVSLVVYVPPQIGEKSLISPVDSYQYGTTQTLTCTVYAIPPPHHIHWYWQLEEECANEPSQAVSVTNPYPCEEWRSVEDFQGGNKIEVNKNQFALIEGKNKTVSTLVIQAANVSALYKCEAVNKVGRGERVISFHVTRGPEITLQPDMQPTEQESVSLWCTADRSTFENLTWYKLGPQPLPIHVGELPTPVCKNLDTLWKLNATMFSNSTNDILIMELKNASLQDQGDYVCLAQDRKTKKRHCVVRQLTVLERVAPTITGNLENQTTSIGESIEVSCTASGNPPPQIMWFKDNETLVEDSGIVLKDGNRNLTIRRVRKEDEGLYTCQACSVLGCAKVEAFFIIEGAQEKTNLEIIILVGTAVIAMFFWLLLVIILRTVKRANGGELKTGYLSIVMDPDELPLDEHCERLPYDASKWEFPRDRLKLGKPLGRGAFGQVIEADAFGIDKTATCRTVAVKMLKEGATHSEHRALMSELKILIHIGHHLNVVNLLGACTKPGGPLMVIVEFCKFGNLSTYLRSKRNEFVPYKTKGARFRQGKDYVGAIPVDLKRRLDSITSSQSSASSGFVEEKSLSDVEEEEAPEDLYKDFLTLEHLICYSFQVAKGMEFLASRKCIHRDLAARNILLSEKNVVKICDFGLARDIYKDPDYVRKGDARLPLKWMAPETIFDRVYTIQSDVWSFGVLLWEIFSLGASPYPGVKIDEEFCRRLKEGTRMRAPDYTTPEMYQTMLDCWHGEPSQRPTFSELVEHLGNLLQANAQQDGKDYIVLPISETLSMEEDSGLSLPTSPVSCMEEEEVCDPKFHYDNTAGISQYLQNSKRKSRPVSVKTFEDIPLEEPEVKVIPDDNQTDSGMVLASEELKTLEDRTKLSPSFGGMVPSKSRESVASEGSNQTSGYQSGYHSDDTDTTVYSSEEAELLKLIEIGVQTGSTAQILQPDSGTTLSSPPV

These are yes or no findings as the source states them, for the method shown. Binding seen in cells or lysates may run through a third protein. Some entries that bind do so weakly or less than the wild type.

B1: human SCUBE2 (Signal peptide-CUB-EGF domain-containing protein 2) (receptor)
chain: RAAGPQEDVDECAQGLDDCHADALCQNTPTSYKCSCKPGYQGEGRQCEDIDECGNELNGGCVHDCLNIPGNYRCTCFDGFMLAHDGHNCLDVDECLENNGGCQHTCVNVMGSYECCCKEGFFLSDNQHTCIHRSEEGLSCMNKDHGCSHICKEAPRGSVACECRPGFELAKNQRDCILTCNHGNGGCQHSCDDTADGPECSCHPQYKMHTDGRSCLEREDTVLEVTESNTTSVVDGDKRVKRRLLMETCAVNNGGCDRTCKDTSTGVHCSCPVGFTLQLDGKTCKDIDECQTRNGGCDHFCKNIVGSFDCGCKKGFKLLTDEKSCQDVDECSLDRTCDHSCINHPGTFACACNRGYTLYGFTHCGDTNECSINNGGCQQVCVNTVGSYECQCHPGYKLHWNKKDCVEVKGLLPTSVSPRVSLHCGKSGGGDGCFLRCHSGIHLSSGLQGAYSVTCGSSSPLRNKQQKSNDSAFGDVTTIRTSVTFKLNEGKCSLKNAELFPEGLRPALPEKHSSVKESFRYVNLTCSSGKQVPGAPGRPSTPKEMFITVEFELETNQKEVTASCDLSCIVKRTEKRLRKAIRTLRKAVHREQFHLQLSGMNLDVAKKPPRTSERQAESCGVGQGHAENQCVSCRAGTYYDGARERCILCPNGTFQNEEGQMTCEPCPRPGNSGALKTPEAWNMSECGGLCQPGEYSADGFAPCQLCALGTFQPEAGRTSCFPCGGGLATKHQGATSFQDCETRVQCSPGHFYNTTTHRCIRCPVGTYQPEFGKNNCVSCPGNTTTDFDGSTNITQCKNRRCGGELGDFTGYIESPNYPGNYPANTECTWTINPPPKRRILIVVPEIFLPIEDDCGDYLVMRKTSSSNSVTTYETCQTYERPIAFTSRSKKLWIQFKSNEGNSARGFQVPYVTYDEDYQELIEDIVRDGRLYASENHQEILKDKKLIKALFDVLAHPQNYFKYTAQESREMFPRSFIRLLRSKVSRFLRPYK
notes: Signal peptide a.a; 1-37 and mature protein a.a; also GST.SCUBE2-CUB); also called FLAG.SCUBE2-FL; FLAG-tagged SCUBE2
As for B1, the binding entry was “binds”.

The record behind these values is patent US20190127454A1 (ACADEMIA SINICA, published 2019).
